# Measured values as given in the supplement of paper PMC6924143.
# System: RAW-Blue (mouse TLR9 reporter, RAW 264.7)
# Assay: mTLR9 reporter activity (SEAP, QUANTI-Blue absorbance) (OD650); higher = stronger mouse TLR9 activation
# Settings: 3 h
# Protocol: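 Synthetic single-stranded 24-mer CpG ODNs were diluted in saline and added to mouse RAW-Blue cells (RAW 264.7 with an NF-kB/AP-1-inducible SEAP reporter; endogenous mouse TLR9), about 1e5 cells/well. After 3 h, SEAP in the supernatant was read with QUANTI-Blue as absorbance at 650 nm. ODN concentration and backbone chemistry are not stated; activity of 0.4 or above is the paper's high-activity class.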
row,Sequence,mTLR9 reporter activity
1,TACGCGTCGAGTCACGTCGTCGTT [ODN110],0.12
2,TACGTGTCGACGCGCAGATGTCTT [ODN093],0.24
3,TAGCTTTTGCGTCGCGTGCGTTTT [ODN001],0.447
4,TAGTCGCGCTCGCGCGTGCTTCGT [ODN198],0.133
5,TAGTCGTTCGTTCGCGTTCGCTGT [ODN249],0.306
6,TATACACGTTGAGCGCGTTGTGTT [ODN088],0.455
7,TATCGCAGTTGACGTGTGCGAGTT [ODN064],0.203
8,TATGTCGCGTGCGCGTTTTGTTTT [ODN060],0.212
9,TCACGGGCGGTTAGCCGCCGTTCA [mODN-006],0.14
10,TCAGAGCGAGTTGTTCTACGTGTT [ODN068],0.163
11,TCAGGCCCGCGCTTCGTTGCGCGT [mODN-007],0.34
12,TCAGTGCGCTGCGCGTCTCGTTGT [ODN143],0.167
13,TCATCCCGGTTACGCGGGCTTCGA [mODN043],0.26
14,TCCCCGATTCGCGGCGGATTACCG [mODN050],0.34
15,TCCCGAGGCCGTTACGTCCGTTGC [mODN045],0.47
16,TCCCGCATTAGCCGCGGGTGCGTT [mODN101],0.4
17,TCCCGCGGTGCGTCGCGATTCTTA [mODN71],0.47
18,TCCCGTCGTATTGCCCGGCCGTTG [mODN100],0.48
19,TCCCGTTCGTGGGCGTTACCGCCG [mODN-019],0.36
20,TCCCGTTTCGTTGGCTCGCACGGG [mODN81],0.48
21,TCCCGTTTGCGCGGTCCGACGCTT [mODN82],0.51
22,TCCCTCATTCGTTGCGGCCGGCGG [mODN96],0.58
23,TCCGACGTTCCGTTGGCGACGCGG [mODN95],0.87

# Taken from above:
# mTLR9 reporter activity with TCCCGTTTCGTTGGCTCGCACGGG [mODN81] is entered as 0.48
# mTLR9 reporter activity with TATGTCGCGTGCGCGTTTTGTTTT [ODN060] is entered as 0.212
# mTLR9 reporter activity with TCCCGTTTGCGCGGTCCGACGCTT [mODN82] is entered as 0.51
# mTLR9 reporter activity with TAGTCGCGCTCGCGCGTGCTTCGT [ODN198] is entered as 0.133

# Following part.

row,Sequence,mTLR9 reporter activity
1,TCCGAGATTGCCACGTTGCGGCCG [mODN-017],0.18
2,TCCGCCGTTCGGCCAGTTGTACGG [mODN068],0.52
3,TCCGCGCCCGGTTCCGGTTCATGT [mODN102],0.45
4,TCCGCGCGCCCGCGGGTTCCTTAC [mODN-015],0.26
5,TCCGCGGCGCACTTGTTCGACGAC [mODN053],0.43
6,TCCGCGGCGCCTTGACCGTTGACG [mODN-022],0.14
7,TCCGCGGCTTCGCGGGCGTTACTT [mODN058],0.39
8,TCCGCGGCTTGGACCACTTCGCGT [mODN066],0.35
9,TCCGCGTTCTTGCGGCTAGGCGAC [mODN033],0.63
10,TCCGCTCCGGATTCGCTTGCAGCG [mODN90],0.47
11,TCCGCTTCGGGCGACCGCTTGTCA [mODN036],0.24
12,TCCGGCTGTTCGCGTGGCACGTTC [mODN91],0.55
13,TCCGGGCGGCGCGTTCCCCACGTT [mODN-026],0.32
14,TCCGGTTCGCGTATAGCCCGCGTT [mODN-014],0.14
15,TCCGTCCTCGGTTACGCGGGCTTC [mODN062],0.47
16,TCCGTTCCCGGACGCGGTCCGGTT [mODN070],0.47
17,TCCGTTCTCGCGCGTTGGGCTCCG [mODN061],0.56
18,TCCGTTGGCGCCGGGGCGCCCCTT [mODN-012],0.32
19,TCCTCGGTTTATTCGGACGCGCGC [mODN034],0.55
20,TCCTGATTCGACGCGCGTTCAGGC [mODN039],0.71
21,TCCTGGTTCGACGCGTGCGCCATT [mODN-029],0.1
22,TCCTTCGGCGCCGCTTGGCGGACA [mODN83],0.45
23,TCCTTGGCTCCGTCGACGGCGCTT [mODN93],0.41

row,Sequence,mTLR9 reporter activity
1,TCGACCGCCGTTGGCTGTTGGCCG [mODN-024],0.52
2,TCGACGCCGCGCTTGCGCTGGTTG [mODN84],0.54
3,TCGACGCGCTTCGTTGTGTCTCGT [ODN208],0.249
4,TCGACGCTTGGCGGCATTGCCGTC [mODN-004],0.77
5,TCGAGCCCGCCGGCGGTTCGCTTT [mODN069],0.56
6,TCGAGCGTCTTTCGCGCGTGCTGT [ODN220],0.19
7,TCGAGCGTGAGTTTTTTTTGCGCT [ODN051],0.256
8,TCGAGGCCGGATTCCTCGTTTCCG [mODN-018],0.16
9,TCGAGGGCCGGCGCCCTTCGGTTA [mODN-027],0.25
10,TCGAGGGCTTCGTTTCGCGCACCA [mODN-008],0.49
11,TCGAGTACGTTGTTGACTGCAGTT [ODN105],0.435
12,TCGAGTTCCGCGCGCGGTCTTCCC [mODN054],0.51
13,TCGATTGTTCCCCAGCGGCGCGGG [mODN-010],0.16
14,TCGCACCGCGCTTCCTTGGCCCGG [mODN041],0.55
15,TCGCACGCGTCGCGTGTATTTGTT [ODN104],0.11
16,TCGCAGACTTCCGCGCCTTGCGGA [mODN-003],0.28
17,TCGCATGTCAGAGTTGAGTCTGTT [ODN063],0.165
18,TCGCCATTGGCGCGCCGTTGCATG [mODN94],0.48
19,TCGCCCGTACTTGGGCGCGGCGTT [mODN052],0.3
20,TCGCCCTTGTGGTTCGACACGCGC [mODN059],0.26
21,TCGCCGGGCCGACCTTACGCGCTT [mODN-001],0.1
22,TCGCCGTTCCACCCGGGGCGATTG [mODN97],0.48
23,TCGCCTCACTACGGCGGGTTCGTT [mODN055],0.32

row,Sequence,mTLR9 reporter activity
1,TCGCCTTGACGGGGGTTCGCCCGC [mODN78],0.6
2,TCGCGACTCATGCAAGTGTGTGTT [ODN100],0.125
3,TCGCGAGCGTGCGTCTTTTCGCGT [ODN173],0.148
4,TCGCGATGTCGTCGCGTGTGCGTT [ODN225],0.191
5,TCGCGCGACGTTGTTTTGTCTTGT [ODN125],0.264
6,TCGCGCGAGTGTGTTCTTCGCTTT [ODN218],0.271
7,TCGCGCGATTCTTGGGGACGCCCG [mODN-011],0.9
8,TCGCGCGCGCGTGCGCTCACTGCT [ODN219],0.236
9,TCGCGCGCGCTTCTGTGTGATCTT [ODN179],0.124
10,TCGCGCGCTCGAGTCGCGCTCTTT [ODN187],0.114
11,TCGCGCGCTTTCGTGCTACTGCGT [ODN185],0.143
12,TCGCGCGCTTTGTTCAGTCGCTGT [ODN195],0.256
13,TCGCGCGTAGTTGTGCTCTTTCGT [ODN182],0.148
14,TCGCGCGTCGATTGTCGTCTCGTT [ODN166],0.194
15,TCGCGCGTCGCTGCTGTGTGTTGT [ODN140],0.375
16,TCGCGCGTGACGCTTGTTCGCTCT [ODN149],0.413
17,TCGCGCGTGCTGTGAGCGCGTTTT [ODN188],0.13
18,TCGCGCGTGTCGTGTCTCGCATTT [ODN211],0.129
19,TCGCGCGTGTTGCGCTTATCGTGT [ODN174],0.102
20,TCGCGCGTTGTTCGTTGTTGTCAT [ODN134],0.739

# This is a noisy data set.
